The record followed here is PubChem BioAssay AID493014 (National Center for Advancing Translational Sciences (NCATS), 2011).

Usually AC50 stands for the concentration at which the activity in the assay is half-maximal.

The nature of this experiment: qHTS Assay to Find Inhibitors of Chronic Active B-Cell Receptor Signaling. The conditions noted are these: ABC-DLBCL IkBa-CBG/CBR reporter, luminescence ratio (green luciferase fused to IkBa over red control in TMD8 lymphoma cells), 4 h. In short, it runs like this:
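TMD8 ABC-DLBCL cells carrying doxycycline-inducible green luciferase fused to IkappaBalpha plus unfused red luciferase were exposed to compounds (up to 46 uM) for 4 hrs at 37C. Activity came from the overlap-corrected green/red luminescence ratio.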
For orientation: In qHTS, concentration-response curves come from the screen itself.

The mark [1] stands for this setting: measured here: CBR red luminescence, cell number.
Where [2] appears, read: measured here: IkBa-CBG green luminescence.

This is one part of the list. These are further read-outs of the screen, such as a control signal, another cell line or another target. No call is given for them. Most of these compounds were active or inconclusive in the main read-out, so they are no random draw. Words in brackets tell the shape of the fitted curve; partial curves, single points and poor fits give uncertain potencies.

`Cc1cccc(-n2ncc3c(NCCCN4CCCC4=O)ncnc32)c1`: the concentration at half-maximal activity (AC50) under setting [1] was 0.562 µM [falling, full curve].
Consider `CSCCC(NS(=O)(=O)c1ccc(Cl)cc1)C(=O)OCC(=O)c1c(C)[nH]c2ccccc12` (configuration not stated), for which the AC50 is, setting by setting: under setting [1], 20.6 µM [falling, single point]; under setting [2], 25.9 µM [rising, partial curve, poor fit].
Regarding `O=c1c2cc(F)ccc2sn1-c1ccccc1`, the AC50 reads like this: under setting [1], 16.4 µM [falling, partial curve]; under setting [2], 3.66 µM [falling, full curve, poor fit].
Take `CCCn1c(=N)n(CC(O)c2ccc(C)cc2)c2ccccc21` (configuration not stated): under setting [1], the AC50 is 11.2 µM [falling, single point].
Still for that read-out and setting: the figure for `CC[C@H](C)[C@H](NC(=O)c1ccc(Cl)cc1)C(=O)OCC(=O)c1ccc2c(c1)NC(=O)CO2` is 18.4 µM [falling, single point]; for `NC1=NC[C@H](c2ccccc2)N1CCc1cc(C(F)(F)F)cc(C(F)(F)F)c1` it is 14.1 µM [falling, partial curve, poor fit].
With `COc1ccc(S(=O)(=O)N2CCN(CCOc3ccccc3Cl)CC2)cc1OC`, the AC50 under setting [1] was 6.51 µM [rising, single point].
For `Cc1ccc(C(=O)/C=C/c2cc(Br)cc(Br)c2O)o1`, the AC50 under setting [1] is 0.562 µM [rising, full curve, poor fit] and the AC50 under setting [2] is 17.8 µM [falling, single point].
As to `CC(C)(C)NC(=O)/C=C/c1cccc(C(F)(F)F)c1`, under setting [1], the AC50 was 7.31 µM [rising, partial curve].
Same read-out and setting: the value for `CN(C)CCNS(=O)(=O)c1ccc(N2CCN(c3ccc(F)cc3)CC2)c([N+](=O)[O-])c1` was 20.6 µM [falling, single point].
The same measure, in the same setting: the value for `CCOC(=O)c1ccc(Nc2nnc(C(C)(C)C)c(=O)[nH]2)cc1` was 1.41 µM [falling, full curve, poor fit]; that for `COc1ccc(F)cc1C(=O)C1CCCN(C(=O)CCN2CCCCO2)C1` (configuration not stated) was 10 µM [rising, partial curve, poor fit]; that for `COc1ccc(/C=C2\CCCC(C(=O)C(F)(F)F)=C2O)cc1` was 6.51 µM [rising, full curve, poor fit].
Still for that read-out and setting: the value for `N#Cc1ccc(NC(=O)Nc2ccc(Cl)cc2)cc1` was 0.164 µM [rising, full curve, poor fit].
For `Cc1cc(C)cc(N(CC(=O)NCc2ccco2)C(=O)CCC(=O)Nc2ccccn2)c1`, the AC50 under setting [1] was 35.5 µM [falling, single point].
In the case of `COc1ccc(N=c2oc3cc(O)ccc3cc2C(=O)NCC2CCCO2)cc1` (configuration not stated), the AC50 under setting [1] was 0.891 µM [falling, full curve].
The same measure, in the same setting: the figure for `NNc1nc2c(F)cccc2s1` is 10.3 µM [falling, partial curve].
On the same count and under the same terms, the value for `COc1ccc(-c2csc(NC(=O)c3ccoc3C)n2)cc1` was 31.6 µM [falling, partial curve, poor fit]; that for `CCOc1ccc(/C=N/n2cnnc2)cc1` was 6.51 µM [rising, single point].
Same read-out and setting: the value for `CSc1nsc(SCC(=O)Nc2cccc(C(=O)O)c2)n1` was 22.4 µM [falling, single point]; that for `Cc1noc(C)c1C(=O)Nc1c(F)cc(F)cc1Br` was 6.51 µM [rising, partial curve, poor fit].
`CCn1c(=S)[nH]c2sc3c(c2c1=O)CCCCC3`: the AC50 under setting [2] is 3.16 µM [rising, full curve, poor fit].
As for `COc1ccc(NC(=O)Nc2ccc3c(c2)CC(=O)N([C@H](C)CO)C[C@@H](C)[C@H](CN(C)C(=O)Nc2ccccc2)O3)cc1`, under setting [1], the AC50 is 2.59 µM [rising, full curve, poor fit].
Regarding `O=C(N/N=C/c1cn(-c2ccccc2)nc1-c1cccnc1)c1ccc(F)cc1`, the AC50 under setting [1] is 11.2 µM [falling, partial curve, poor fit].
For `Cc1nc(SCc2nc3ccccc3[nH]2)c2oc3ccccc3c2n1`, the AC50 under setting [1] was 35.5 µM [falling, single point].
On the same count and under the same terms, the figure for `O=C1c2ccccc2C(=O)N1CCc1nc2ccccc2c(=O)n1-c1ccccn1` is 0.00461 µM [rising, full curve, poor fit]; for `Cc1nc2ccc(NC(=O)CS(=O)(=O)c3ccc(F)cc3)cc2s1` it is 13 µM [falling, partial curve].
Still for that read-out and setting: the value for `CC(=O)c1ccc(-c2ccccc2[C@H]2[C@H]3C=CC[C@@H](C)[C@@H]3C(=O)N2Cc2ccccc2)cc1` was 11.2 µM [falling, single point]; that for `COc1ccccc1CC(=O)NCc1csc(-c2cccs2)n1` was 12.6 µM [rising, partial curve]; that for `CSc1nnc2n(Cc3ccccc3)c(=O)c3c4c(sc3n12)COC(C(C)C)C4` (configuration not stated) was 29.1 µM [rising, partial curve, poor fit].
With `O=S(=O)(Nc1cc2nc3ccccc3nc2n1Cc1ccccc1)c1ccc(Cl)cc1`, the AC50 runs as follows: under setting [1], 10.3 µM [rising, partial curve]; under setting [2], 8.2 µM [falling, partial curve, poor fit].
Regarding `CC(=O)c1ccc(NC(=O)CSc2nccn2CCc2ccccc2)cc1`, under setting [1], the AC50 was 0.0231 µM [falling, full curve, poor fit].
On the same count and under the same terms, the value for `O=S(=O)([N-]c1nc2ccccc2nc1-n1cc[n+](Cc2ccccc2)c1)c1ccccc1` was 7.08 µM [rising, full curve, poor fit]; that for `CN1CCN(C2=C(NS(=O)(=O)c3ccccc3)C(=O)c3ccccc3C2=O)CC1` was 35.5 µM [falling, single point].
On the same count and under the same terms, the value for `Nc1ncc(-c2ccccc2)c(-c2ccc(O)cc2O)n1` was 3.98 µM [falling, partial curve, poor fit]; that for `Cc1ccccc1N/C(SCc1ccc(Cl)cc1)=C(/C#N)C(N)=O` was 16.4 µM [falling, single point].
Turning to `CCN(CC)c1nc(-c2ccc(C(=O)NN)cc2)nc(-c2ccc(C(=O)NN)cc2)n1`, the half-maximal activity concentration (AC50) under setting [1] is 3.55 µM [falling, partial curve, poor fit].
Consider `COc1ccc(OCC(=O)N/N=C(\C)CC(=O)Nc2cccc([N+](=O)[O-])c2)cc1`, for which the AC50 under setting [1] was 20 µM [falling, single point].
Still for that read-out and setting: the figure for `CCCNc1nc(-c2cc(-c3ccc(Cl)cc3)on2)cc(C(C)C)n1` is 1.41 µM [rising, full curve, poor fit]; for `CN(C)C(=O)c1ccc2c(c1)n(C)c(=O)n2C` it is 11.6 µM [rising, partial curve]; for `CCCOC(=O)CSC1=C(C#N)C(c2ccccc2OC)C(C#N)C(=O)N1` (configuration not stated) it is 1.3 µM [falling, partial curve, poor fit].
Still for that read-out and setting: the value for `O=C(NC(=S)NC(=O)c1ccccc1F)c1ccccc1F` was 10.3 µM [falling, partial curve].
Turning to `CC(C)Oc1ccccc1C1CC(=O)Nc2cc3c(cc21)OCCO3` (configuration not stated), the AC50 by setting is: under setting [1], 11.2 µM [rising, partial curve]; under setting [2], 17.8 µM [falling, partial curve].
Regarding `CCOC(=O)c1ccc(-c2c(-c3cc(OC)c(OC)c(OC)c3)noc2C)cc1F`, the AC50 is 3.16 µM [rising, full curve] under setting [1] and 1.78 µM [falling, full curve, poor fit] under setting [2].
Take `C/C(CCC1CC(C)OC1=O)=N/Nc1nc(-c2ccccc2)cs1` (configuration not stated): under setting [1], the AC50 was 6.51 µM [falling, partial curve].
Same read-out and setting: the figure for `CN(Cc1ccc(OC(F)F)cc1)Cc1nc2c(Br)cc(Br)cc2c(=O)[nH]1` is 15.8 µM [falling, single point].
As to `O=[N+]([O-])c1ccc(-c2ccc(/C=N/n3cnnc3)o2)c(Br)c1`, under setting [1], the AC50 is 28.2 µM [falling, partial curve, poor fit].
As to `CCc1ccc(C2CC(c3ccccc3)Nc3nc(N)nn32)cc1` (configuration not stated), under setting [1], the AC50 was 3.55 µM [rising, single point].
Still for that read-out and setting: the value for `Cc1csc(NC(=O)c2ccc3nc[nH]c3c2)n1` was 22.4 µM [falling, single point]; that for `O=C(C[n+]1ccccc1)Nc1nc2ccccc2s1` was 3.66 µM [falling, full curve].
For the compound `O=c1oc2ccccc2c2c1ncn2-c1ccccc1`, the AC50 was 0.517 µM [rising, full curve, poor fit] under setting [1] and 6.51 µM [falling, partial curve, poor fit] under setting [2].
Take `CSc1nnc(-c2ccccc2)c(=O)[nH]1`: under setting [1], the AC50 was 15.8 µM [falling, single point].
On the same count and under the same terms, the value for `CC1(C)Oc2ccc(C(=O)Nc3ccccc3F)cc2N(CC(=O)N2CCOCC2)C1=O` was 1.78 µM [falling, partial curve, poor fit].
Same read-out and setting: the figure for `CCOC(=O)N1CCN(C(=O)c2ccc3c(=O)n(CC4CCCO4)c(=S)[nH]c3c2)CC1` (configuration not stated) is 8.91 µM [rising, partial curve, poor fit]; for `COc1ccc(OCC(O)Cn2cnc(-c3ccc(Br)cc3)c2)cc1` (configuration not stated) it is 13 µM [rising, partial curve, poor fit]; for `COc1ccc2nc3n(c(=O)c2c1)-c1cc(C)ccc1C(=O)NC3Cc1ccc(O)cc1` (configuration not stated) it is 0.146 µM [rising, full curve, poor fit].
Still for that read-out and setting: the figure for `N#Cc1nc(-c2ccc(OCc3ccccc3)cc2)oc1N1CCOCC1` is 0.259 µM [rising, full curve, poor fit].
For `CC(C)CC(=O)Nc1cccc(C(=O)Nc2ccccc2C(=O)O)c1`, under setting [1], the AC50 is 11.6 µM [falling, partial curve].
On the same count and under the same terms, the value for `CSc1ccccc1NC(=O)c1cc(-c2cccs2)on1` was 2.82 µM [falling, partial curve, poor fit]; that for `O=C(COC(=O)c1ccc2ncsc2c1)Nc1cc([N+](=O)[O-])ccc1Cl` was 0.58 µM [falling, partial curve, poor fit].
